The supplement of paper PMC10849652
The list shows a part of the results.

Sequences of proteins named here, by UniProt entry; tags and fusion partners are left off. A change or cut given only in a name is not applied to a line headed by its entry.
UniProt C9J5V9: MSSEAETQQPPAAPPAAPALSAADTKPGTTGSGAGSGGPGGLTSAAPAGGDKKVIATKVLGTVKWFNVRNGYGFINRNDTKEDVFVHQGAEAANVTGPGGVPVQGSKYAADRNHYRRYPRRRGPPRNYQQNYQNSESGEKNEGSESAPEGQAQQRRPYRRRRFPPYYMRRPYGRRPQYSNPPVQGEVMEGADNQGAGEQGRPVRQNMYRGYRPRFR
UniProt P47974: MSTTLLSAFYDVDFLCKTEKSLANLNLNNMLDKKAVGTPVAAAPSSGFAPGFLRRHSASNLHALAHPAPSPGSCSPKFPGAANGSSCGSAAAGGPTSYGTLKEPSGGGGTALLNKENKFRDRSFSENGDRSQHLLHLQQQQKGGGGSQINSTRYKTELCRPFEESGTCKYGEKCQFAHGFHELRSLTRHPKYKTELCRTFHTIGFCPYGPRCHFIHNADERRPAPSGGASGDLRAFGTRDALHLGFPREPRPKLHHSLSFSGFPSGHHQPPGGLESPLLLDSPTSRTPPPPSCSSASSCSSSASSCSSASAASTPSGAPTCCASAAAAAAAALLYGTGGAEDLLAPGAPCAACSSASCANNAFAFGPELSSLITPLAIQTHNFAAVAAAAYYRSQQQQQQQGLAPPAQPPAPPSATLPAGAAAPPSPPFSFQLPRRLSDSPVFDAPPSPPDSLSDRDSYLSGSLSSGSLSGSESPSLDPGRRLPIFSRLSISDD
UniProt O43543: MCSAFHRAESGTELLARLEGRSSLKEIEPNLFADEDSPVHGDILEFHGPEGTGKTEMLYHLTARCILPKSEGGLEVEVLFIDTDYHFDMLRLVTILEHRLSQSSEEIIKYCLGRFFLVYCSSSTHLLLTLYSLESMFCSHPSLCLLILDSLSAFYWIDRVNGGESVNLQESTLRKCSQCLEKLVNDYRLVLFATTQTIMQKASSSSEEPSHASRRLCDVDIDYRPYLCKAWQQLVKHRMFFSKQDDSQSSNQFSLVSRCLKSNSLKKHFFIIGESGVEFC
UniProt Q68DK2: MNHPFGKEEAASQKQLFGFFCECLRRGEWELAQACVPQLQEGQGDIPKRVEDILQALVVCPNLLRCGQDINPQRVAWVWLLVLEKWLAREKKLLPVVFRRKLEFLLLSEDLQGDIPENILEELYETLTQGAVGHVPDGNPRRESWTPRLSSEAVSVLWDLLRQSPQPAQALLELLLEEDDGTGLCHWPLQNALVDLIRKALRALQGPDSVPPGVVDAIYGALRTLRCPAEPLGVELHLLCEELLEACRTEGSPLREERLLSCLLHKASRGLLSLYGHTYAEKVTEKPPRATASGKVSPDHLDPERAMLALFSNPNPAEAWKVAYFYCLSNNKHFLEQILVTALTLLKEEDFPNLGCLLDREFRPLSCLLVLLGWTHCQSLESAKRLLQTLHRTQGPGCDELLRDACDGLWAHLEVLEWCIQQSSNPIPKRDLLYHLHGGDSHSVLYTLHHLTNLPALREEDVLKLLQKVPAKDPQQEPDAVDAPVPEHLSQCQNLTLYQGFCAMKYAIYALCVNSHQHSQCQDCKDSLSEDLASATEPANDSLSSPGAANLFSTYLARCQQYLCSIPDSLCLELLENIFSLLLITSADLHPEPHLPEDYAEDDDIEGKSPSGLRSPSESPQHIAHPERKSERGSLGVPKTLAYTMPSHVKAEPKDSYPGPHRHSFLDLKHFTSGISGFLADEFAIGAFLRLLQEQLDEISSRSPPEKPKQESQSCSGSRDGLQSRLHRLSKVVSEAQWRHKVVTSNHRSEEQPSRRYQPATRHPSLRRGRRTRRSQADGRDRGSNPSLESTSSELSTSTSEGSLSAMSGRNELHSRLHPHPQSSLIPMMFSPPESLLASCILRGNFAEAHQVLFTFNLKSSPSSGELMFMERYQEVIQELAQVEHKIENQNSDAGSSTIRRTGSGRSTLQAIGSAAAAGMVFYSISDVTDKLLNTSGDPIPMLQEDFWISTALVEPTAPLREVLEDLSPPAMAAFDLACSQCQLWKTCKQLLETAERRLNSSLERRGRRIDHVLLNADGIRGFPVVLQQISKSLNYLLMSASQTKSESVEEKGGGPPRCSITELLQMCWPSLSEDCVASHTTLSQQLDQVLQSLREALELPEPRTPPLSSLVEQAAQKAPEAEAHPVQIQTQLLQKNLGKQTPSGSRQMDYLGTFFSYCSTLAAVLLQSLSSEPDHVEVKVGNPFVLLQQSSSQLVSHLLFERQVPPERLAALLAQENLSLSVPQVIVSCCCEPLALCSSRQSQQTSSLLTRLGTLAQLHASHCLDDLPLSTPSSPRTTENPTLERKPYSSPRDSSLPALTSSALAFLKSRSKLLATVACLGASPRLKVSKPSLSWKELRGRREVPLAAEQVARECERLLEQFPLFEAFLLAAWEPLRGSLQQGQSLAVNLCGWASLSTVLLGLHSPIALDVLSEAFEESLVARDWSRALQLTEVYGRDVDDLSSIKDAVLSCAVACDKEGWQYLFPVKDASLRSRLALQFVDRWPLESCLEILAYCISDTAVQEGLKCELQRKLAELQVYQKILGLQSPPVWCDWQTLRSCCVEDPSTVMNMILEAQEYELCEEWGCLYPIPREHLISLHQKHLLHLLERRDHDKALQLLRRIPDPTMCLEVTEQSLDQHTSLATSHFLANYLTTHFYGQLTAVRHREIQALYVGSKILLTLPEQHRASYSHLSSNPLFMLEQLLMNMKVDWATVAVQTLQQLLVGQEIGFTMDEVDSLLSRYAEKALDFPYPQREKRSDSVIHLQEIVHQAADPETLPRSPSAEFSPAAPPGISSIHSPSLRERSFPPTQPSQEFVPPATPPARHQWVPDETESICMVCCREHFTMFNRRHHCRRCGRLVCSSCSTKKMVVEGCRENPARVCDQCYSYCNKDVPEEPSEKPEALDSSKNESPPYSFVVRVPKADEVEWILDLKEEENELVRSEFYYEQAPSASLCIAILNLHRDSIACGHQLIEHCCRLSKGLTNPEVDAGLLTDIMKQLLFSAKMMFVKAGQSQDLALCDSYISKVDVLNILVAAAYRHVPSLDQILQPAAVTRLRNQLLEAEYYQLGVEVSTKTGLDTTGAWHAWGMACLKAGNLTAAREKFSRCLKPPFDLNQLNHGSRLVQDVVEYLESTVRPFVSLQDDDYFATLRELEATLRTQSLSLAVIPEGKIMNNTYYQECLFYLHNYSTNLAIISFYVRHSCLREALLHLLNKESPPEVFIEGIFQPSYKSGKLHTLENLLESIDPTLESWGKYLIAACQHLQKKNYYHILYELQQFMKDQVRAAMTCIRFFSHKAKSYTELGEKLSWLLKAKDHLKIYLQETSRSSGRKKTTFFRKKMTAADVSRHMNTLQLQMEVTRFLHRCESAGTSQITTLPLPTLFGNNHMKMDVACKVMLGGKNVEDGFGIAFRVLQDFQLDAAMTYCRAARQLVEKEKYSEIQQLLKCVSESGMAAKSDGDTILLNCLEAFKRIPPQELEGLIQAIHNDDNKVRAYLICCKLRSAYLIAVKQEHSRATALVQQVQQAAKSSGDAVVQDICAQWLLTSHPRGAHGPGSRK
UniProt Q9H6R6: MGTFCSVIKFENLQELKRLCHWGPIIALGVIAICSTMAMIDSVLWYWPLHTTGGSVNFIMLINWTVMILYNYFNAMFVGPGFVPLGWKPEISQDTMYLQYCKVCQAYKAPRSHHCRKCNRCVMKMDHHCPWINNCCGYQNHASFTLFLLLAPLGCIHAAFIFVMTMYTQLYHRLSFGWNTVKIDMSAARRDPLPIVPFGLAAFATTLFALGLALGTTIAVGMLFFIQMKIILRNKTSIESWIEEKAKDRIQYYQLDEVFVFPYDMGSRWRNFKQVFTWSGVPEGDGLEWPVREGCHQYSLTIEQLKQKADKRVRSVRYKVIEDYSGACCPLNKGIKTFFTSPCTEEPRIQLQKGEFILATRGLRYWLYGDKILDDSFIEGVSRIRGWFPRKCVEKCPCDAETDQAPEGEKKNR
UniProt Q9NP64: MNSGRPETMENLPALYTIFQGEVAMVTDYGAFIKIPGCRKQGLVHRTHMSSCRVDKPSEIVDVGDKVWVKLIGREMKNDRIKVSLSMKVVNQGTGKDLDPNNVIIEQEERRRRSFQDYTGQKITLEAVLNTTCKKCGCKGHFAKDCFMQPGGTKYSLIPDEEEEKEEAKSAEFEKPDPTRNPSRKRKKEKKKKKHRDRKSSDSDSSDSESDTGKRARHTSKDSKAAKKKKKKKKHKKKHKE
UniProt Q9H1B5: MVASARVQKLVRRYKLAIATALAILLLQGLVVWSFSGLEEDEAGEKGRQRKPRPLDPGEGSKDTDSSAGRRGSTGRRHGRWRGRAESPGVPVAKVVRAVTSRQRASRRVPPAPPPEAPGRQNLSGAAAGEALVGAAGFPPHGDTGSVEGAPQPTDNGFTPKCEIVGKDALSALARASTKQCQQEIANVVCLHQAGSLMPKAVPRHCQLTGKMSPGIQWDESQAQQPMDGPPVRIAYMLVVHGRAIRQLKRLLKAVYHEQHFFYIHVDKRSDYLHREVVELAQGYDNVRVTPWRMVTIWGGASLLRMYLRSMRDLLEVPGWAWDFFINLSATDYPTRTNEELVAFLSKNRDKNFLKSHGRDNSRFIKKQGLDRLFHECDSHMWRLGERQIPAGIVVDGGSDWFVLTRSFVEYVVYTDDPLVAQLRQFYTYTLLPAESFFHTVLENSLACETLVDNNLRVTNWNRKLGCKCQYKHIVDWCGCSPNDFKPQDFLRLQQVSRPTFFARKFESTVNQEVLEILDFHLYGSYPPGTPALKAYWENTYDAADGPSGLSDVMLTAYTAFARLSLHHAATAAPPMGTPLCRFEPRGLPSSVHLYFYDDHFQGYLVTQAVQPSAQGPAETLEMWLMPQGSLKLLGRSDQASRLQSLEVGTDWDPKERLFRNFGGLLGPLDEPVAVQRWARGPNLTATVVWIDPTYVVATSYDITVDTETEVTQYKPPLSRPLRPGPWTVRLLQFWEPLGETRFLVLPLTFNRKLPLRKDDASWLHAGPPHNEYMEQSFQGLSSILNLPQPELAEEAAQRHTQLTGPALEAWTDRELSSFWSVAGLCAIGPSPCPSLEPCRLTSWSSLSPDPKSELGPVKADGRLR
UniProt Q969W1: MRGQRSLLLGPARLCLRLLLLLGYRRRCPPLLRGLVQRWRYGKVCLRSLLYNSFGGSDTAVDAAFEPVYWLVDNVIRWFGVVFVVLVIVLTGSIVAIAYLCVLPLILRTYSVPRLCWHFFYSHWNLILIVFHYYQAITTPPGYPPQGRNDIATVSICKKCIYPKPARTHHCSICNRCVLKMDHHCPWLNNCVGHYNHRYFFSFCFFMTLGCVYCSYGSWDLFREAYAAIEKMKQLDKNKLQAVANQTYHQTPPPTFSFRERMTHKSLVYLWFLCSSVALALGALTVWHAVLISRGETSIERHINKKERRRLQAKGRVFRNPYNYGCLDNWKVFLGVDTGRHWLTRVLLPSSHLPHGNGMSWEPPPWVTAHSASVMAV
UniProt Q9HCC9: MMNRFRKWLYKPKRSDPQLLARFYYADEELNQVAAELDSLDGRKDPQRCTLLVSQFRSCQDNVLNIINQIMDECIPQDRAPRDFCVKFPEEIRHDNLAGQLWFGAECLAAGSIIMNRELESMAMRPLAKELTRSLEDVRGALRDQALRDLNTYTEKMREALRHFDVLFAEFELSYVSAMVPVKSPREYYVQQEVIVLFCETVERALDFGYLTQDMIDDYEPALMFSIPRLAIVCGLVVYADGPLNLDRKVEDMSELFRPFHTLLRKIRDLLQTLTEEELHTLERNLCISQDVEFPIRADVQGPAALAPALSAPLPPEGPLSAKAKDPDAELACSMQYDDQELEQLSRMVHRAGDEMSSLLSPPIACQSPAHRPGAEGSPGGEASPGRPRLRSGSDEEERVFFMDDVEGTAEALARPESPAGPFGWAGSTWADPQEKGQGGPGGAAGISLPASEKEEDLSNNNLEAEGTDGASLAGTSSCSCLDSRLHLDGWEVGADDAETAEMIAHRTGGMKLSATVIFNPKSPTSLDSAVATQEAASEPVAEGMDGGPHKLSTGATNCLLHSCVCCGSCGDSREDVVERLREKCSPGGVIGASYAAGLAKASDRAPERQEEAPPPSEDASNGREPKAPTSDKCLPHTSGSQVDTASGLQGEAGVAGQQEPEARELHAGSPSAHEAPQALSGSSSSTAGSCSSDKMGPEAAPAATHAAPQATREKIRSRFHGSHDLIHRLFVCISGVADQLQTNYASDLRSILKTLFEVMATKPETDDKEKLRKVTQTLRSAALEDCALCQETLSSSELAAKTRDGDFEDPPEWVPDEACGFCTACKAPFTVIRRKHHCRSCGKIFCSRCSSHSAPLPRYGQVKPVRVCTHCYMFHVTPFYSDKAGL
UniProt Q9BQ24: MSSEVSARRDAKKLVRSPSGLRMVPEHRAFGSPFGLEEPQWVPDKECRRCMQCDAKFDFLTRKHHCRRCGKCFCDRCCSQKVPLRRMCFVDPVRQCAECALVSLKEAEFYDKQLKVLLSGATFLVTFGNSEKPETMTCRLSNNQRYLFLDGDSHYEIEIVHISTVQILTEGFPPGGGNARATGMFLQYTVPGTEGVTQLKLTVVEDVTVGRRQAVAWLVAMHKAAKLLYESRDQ

How the values were obtained:
Assay in all cases: log2 fold change, soluble protein after heating vs DMSO (PISA); higher = thermal stabilisation; K562 cells, 10 uM, 30 min; active = over 0.2 and 3.5 SD of the protein, either way, in both replicates (recomputed)
bafetinib = compound: Cc1ccc(NC(=O)c2ccc(CN3CC[C@H](N(C)C)C3)c(C(F)(F)F)c2)cc1Nc1nccc(-c2cncnc2)n1 [bafetinib]
Outline: (§1)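 K562 cells at 2×10^6 cells/mL were treated with 10 μM compound for 30 min. Aliquots were heated for 3 min across 48°C-58°C, pooled, and extracted in PBS with 0.5% NP-40 at 4°C; soluble protein was the supernatant after 21,000xg for 90 min. Soluble protein was quantified by TMTpro 16plex LC-MS/MS with channel sums equalised, and reported as log2 fold change in thermal stability against DMSO controls, with values from duplicates.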

mubritinib = compound: FC(F)(F)c1ccc(/C=C/c2nc(COc3ccc(CCCCn4ccnn4)cc3)co2)cc1 [mubritinib]
Outline: as §1

[1] = compound: NC(=O)Nc1cc(-c2cccc(F)c2)sc1C(=O)N[C@H]1CCCNC1
Outline: as §1

[2] = compound: NC1(c2ccc(-c3nc4ccn5c(=O)[nH]nc5c4cc3-c3ccccc3)cc2)CCC1
Outline: as §1

entinostat = compound: Nc1ccccc1NC(=O)c1ccc(CNC(=O)OCc2cccnc2)cc1 [entinostat]
Outline: as §1

silmitasertib = compound: O=C(O)c1ccc2c(c1)nc(Nc1cccc(Cl)c1)c1ccncc12 [silmitasertib]
Outline: as §1

[3] = compound: NC(=O)c1cnc(N[C@@H]2CCCC[C@@H]2N)nc1Nc1cccc(-n2nccn2)c1
Outline: as §1

[4] = compound: Cn1cc(-c2ccc3c(c2)CCN3C(=O)Cc2cccc(C(F)(F)F)c2)c2c(N)ncnc21
Outline: as §1

[5] = compound: Cn1cc(-c2ccc3nnc(C(F)(F)c4ccc5ncccc5c4)n3n2)cn1
Outline: as §1

[6] = compound: NCC(=O)Nc1ccc(-n2nc(C(F)(F)F)cc2-c2ccc3c(ccc4ccccc43)c2)cc1
Outline: as §1

[7] = compound: Cc1cccc(CC(=O)N2CCc3c2ccc(-c2cn(C)c4ncnc(N)c24)c3F)n1
Outline: as §1

dasatinib = compound: Cc1nc(Nc2ncc(C(=O)Nc3c(C)cccc3Cl)s2)cc(N2CCN(CCO)CC2)n1 [dasatinib]
Outline: as §1

vorinostat = compound: O=C(CCCCCCC(=O)Nc1ccccc1)NO [vorinostat]
Outline: as §1

citarinostat = compound: O=C(CCCCCCNC(=O)c1cnc(N(c2ccccc2)c2ccccc2Cl)nc1)NO [citarinostat]
Outline: as §1

[8] = compound: c1cc(OCCN2CCCCC2)cc(-c2n[nH]c3ccc(-c4nnc[nH]4)cc23)c1
Outline: as §1

tipifarnib = compound: Cn1cncc1[C@@](N)(c1ccc(Cl)cc1)c1ccc2c(c1)c(-c1cccc(Cl)c1)cc(=O)n2C [tipifarnib]
Outline: as §1

nilotinib = compound: Cc1cn(-c2cc(NC(=O)c3ccc(C)c(Nc4nccc(-c5cccnc5)n4)c3)cc(C(F)(F)F)c2)cn1 [nilotinib]
Outline: as §1

[9] = compound: Cc1nc(Nc2n[nH]c3c2CN(C(=O)N[C@H](CN(C)C)c2ccccc2)C3(C)C)c2sccc2n1
Outline: as §1

[10] = compound: Cc1ncc(-c2ccnc(Nc3ccc(S(C)(=O)=O)cc3)n2)n1C(C)C
Outline: as §1

[11] = compound: O=C1NC(=O)C(c2cnc3ccccn23)=C1c1cn2c3c(cc(F)cc13)CN(C(=O)N1CCCCC1)CC2
Outline: as §1

Measured: log2 fold change

ZBTB17 isoform 2 (UniProt Q13105)
inactive: bafetinib 0.07 | mubritinib -0.131 | [1] -0.032 | [2] -0.143 | entinostat -0.14 | silmitasertib 0.023

YBX1 (UniProt C9J5V9)
inactive: [3] -0.031

ZKSCAN4 (UniProt Q969J2)
inactive: [4] -0.091 | [5] 0.067 | [3] -0.034 | [6] 0.045

ZC3H7B (UniProt Q9UGR2)
inactive: [7] -0.252 | dasatinib 0.21 | [4] -0.523 | [5] -0.254 | mubritinib 0.044 | [1] 0.132 | [2] 0.274 | entinostat -0.095 | vorinostat 0.198 | citarinostat -0.042 | silmitasertib 0.352 | [8] -0.27

ZG16B (UniProt Q96DA0)
inactive: bafetinib 0.859 | tipifarnib -0.706 | mubritinib 0.231 | [1] 1.26 | [3] 0.156 | [2] 0.002 | [6] -0.26 | entinostat -0.006 | citarinostat -0.067 | silmitasertib 0.506 | [8] 0.322

ZFP36L2 (UniProt P47974)
inactive: mubritinib 0.099 | [2] 0.018 | silmitasertib -0.056

XRCC2 (UniProt O43543)
inactive: nilotinib -0.444 | [9] 0.082 | dasatinib -0.009 | [10] 0.015 | [4] 0.091 | tipifarnib -0.056 | mubritinib 0.086 | [2] -0.047 | silmitasertib 0.12 | [11] -0.029

ZDHHC7 isoform 2 (UniProt Q9NXF8)
inactive: [7] -0.06 | nilotinib 0.104 | [9] 0.046 | dasatinib -0.063 | [10] 0.059 | [4] -0.088 | [5] 0.091 | tipifarnib -0.047 | [3] -0.064 | [6] -0.056 | vorinostat 0.006 | citarinostat -0.037 | [11] -0.021 | [8] -0.191

ZKSCAN3 (UniProt Q9BRR0)
inactive: [4] -0.15

ZNF225 (UniProt Q9UK10)
inactive: bafetinib -0.08 | [3] -0.056

ZFYVE26 (UniProt Q68DK2)
inactive: [4] -0.045

ZNF22 (UniProt P17026)
inactive: dasatinib 0.019 | [4] -0.46 | [5] -0.211

ZDHHC6 (UniProt Q9H6R6)
inactive: [7] 0.097 | tipifarnib 0.086 | vorinostat -0.108 | citarinostat 0.149 | [11] 0.089 | [8] -0.005

ZBTB33 (UniProt Q86T24)
inactive: dasatinib -0.024 | citarinostat 0.151 | [8] 0.163

ZBTB24 (UniProt O43167)
inactive: [7] -0.118 | dasatinib 0.063 | [4] -0.411 | [5] -0.441 | tipifarnib 0.091 | [1] 0.013 | [3] 0.047 | entinostat -0.215 | vorinostat -0.007 | citarinostat 0.079 | [11] 0.228 | [8] -0.157

XPA (UniProt P23025)
inactive: [7] 0.044 | nilotinib 0.085 | [9] -0.051 | [10] -0.088 | [5] 0.075 | tipifarnib 0.036 | [3] -0.196 | [6] -0.008 | vorinostat -0.195 | [11] -0.003

YTHDF1 (UniProt Q9BYJ9)
inactive: bafetinib -0.004 | [11] 0.343

YBEY (UniProt P58557)
inactive: [7] 0.276 | [5] 0.313 | vorinostat -0.031

ZFPM2 (UniProt Q8WW38)
inactive: [4] 0.01 | mubritinib -0.198 | [3] 0.056 | [2] -0.071 | silmitasertib 0.078

ZDHHC13 (UniProt Q8IUH4)
inactive: [4] -0.067 | [5] -0.021 | [1] -0.014 | [3] -0.051 | entinostat 0.011 | citarinostat -0.326 | [11] 0.224 | [8] 0.154

ZBTB34 (UniProt Q8NCN2)
inactive: [3] 0.154

ZNF131 (UniProt P52739)
inactive: bafetinib -0.112 | [5] 0.036 | [1] -0.13 | entinostat -0.051 | [11] -0.098

ZBTB7B isoform 2 (UniProt O15156)
inactive: [1] 0.025 | [6] 0.035 | entinostat -0.202 | citarinostat 0.131 | [8] 0.099

ZCCHC17 (UniProt Q9NP64)
inactive: [1] -0.064 | [6] -0.137 | entinostat 0.081

ZBTB44 (UniProt Q8NCP5)
inactive: [3] 0.176

XYLT2 (UniProt Q9H1B5)
inactive: [4] 0.149 | [11] -0.195

XYLB (UniProt O75191)
inactive: [11] -0.333

YTHDC2 (UniProt Q9H6S0)
inactive: [7] -0.014 | mubritinib 0.004 | [3] 0.015 | [2] 0.214 | vorinostat 0.18 | citarinostat -0.126 | silmitasertib 0.192 | [11] 0.305 | [8] -0.051

ZFX isoform 3 (UniProt P17010)
inactive: [6] 0.167

XPC (UniProt Q01831)
inactive: [4] -0.024 | [5] 0.271 | tipifarnib -0.268 | [3] -0.015 | [6] 0.352 | citarinostat -0.178 | [11] 0.206 | [8] -0.004

XRCC1 (UniProt P18887)
inactive: [7] 0.019 | dasatinib 0 | [4] 0.123 | [5] 0.063 | [1] -0.011 | [3] -0.183 | entinostat 0.064 | vorinostat 0.228 | [11] -0.211

ZCRB1 (UniProt Q8TBF4)
inactive: [7] 0.012 | tipifarnib 0.015 | [1] -0.08 | entinostat -0.174 | vorinostat -0.073 | citarinostat -0.032 | [8] -0.024

Taken from the results shown (two entries):
ZFX isoform 3 (UniProt P17010)
inactive: [6] 0.167

XPC (UniProt Q01831)
inactive: [4] -0.024 | [5] 0.271 | tipifarnib -0.268 | [3] -0.015 | [6] 0.352 | citarinostat -0.178 | [11] 0.206 | [8] -0.004

More entries follow:

ZDHHC12 isoform 3 (UniProt Q96GR4)
inactive: dasatinib 0.118 | tipifarnib -0.05 | [3] 0.027 | [6] 0.102

ZDHHC16 (UniProt Q969W1)
inactive: nilotinib 0.047 | [9] 0.002 | [10] -0.042 | [1] -0.097 | [6] -0.082 | entinostat -0.125 | citarinostat -0.036 | [8] -0.068

ZFYVE28 (UniProt Q9HCC9)
inactive: bafetinib 0.159 | tipifarnib -0.096

ZFHX4 isoform 5 (UniProt Q86UP3)
inactive: nilotinib 0.171 | [9] -0.028 | [10] -0.018 | [1] 0.125 | entinostat 0.002

ZDHHC4 (UniProt Q9NPG8)
inactive: bafetinib 0.02 | tipifarnib -0.026 | mubritinib -0.005 | [1] 0.067 | [2] -0.07 | [6] 0.025 | entinostat 0.062 | silmitasertib 0.021 | [11] -0.042

ZFYVE21 isoform 2 (UniProt Q9BQ24)
inactive: [7] -0.022 | dasatinib -0.32 | [5] -0.195 | [3] -0.467 | [6] 0.025 | vorinostat 0.14 | citarinostat -0.057 | [8] -0.101

ZDHHC9 (UniProt Q9Y397)
inactive: [7] 0.056 | [5] -0.08 | vorinostat -0.158
